Experimental data as given in US7407988B2, “Carbamic acid compounds comprising a sulfonamide linkage as HDAC inhibitors” (Topotarget UK Limited, priority 2000, dated 2008).

System: K11 HPV E7 transformed human keratinocyte line
Assay: Secondary assay: cell proliferation WST-1, K11
Format: cell-based
Conditions: Table 2, 48 h, read-out: Cell Proliferation Inhibition WST-1 (IC50 unless otherwise specified) K11

## O=C(CCCCCCC(=O)Nc1ccccc1)NO [SAHA, suberoylanilide hydroxamic acid, reference compound]
  IC50: 6.82 µM
